Source: article PMC8384837
Positions count from the first letter of the chain named. Some of the results follow. For some of these results: At the low end of the ranking, values are background and their order means little.

Assays:
Conditions in all cases: yeast three-hybrid, YBZ-1, SC-Leu-His + 0.5 mM 3-AT, 4 days
[1] = molecular target: T1, PUM1 PUF domain R2-VFQ R3-THE R4-TFR N899V + Y900F + C935T + R936H + Q939E + N971T + H972F + Q975R (UniProt Q14671)
T1 sequence: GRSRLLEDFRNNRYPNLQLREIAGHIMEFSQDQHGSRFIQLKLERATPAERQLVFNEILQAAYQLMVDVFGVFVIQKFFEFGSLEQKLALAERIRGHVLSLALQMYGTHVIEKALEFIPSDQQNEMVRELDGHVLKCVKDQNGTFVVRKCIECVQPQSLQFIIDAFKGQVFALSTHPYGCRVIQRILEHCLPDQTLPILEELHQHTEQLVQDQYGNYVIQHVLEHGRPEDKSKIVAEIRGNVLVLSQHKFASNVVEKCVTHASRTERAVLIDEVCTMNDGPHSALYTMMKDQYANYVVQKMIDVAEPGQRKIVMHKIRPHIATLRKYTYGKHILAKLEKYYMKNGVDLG

[2] = molecular target: T2, PUM1 PUF domain R3-THE R4-TFR C935T + R936H + Q939E + N971T + H972F + Q975R (UniProt Q14671)
T2 sequence: T1 sequence with V72N, F73Y

[3] = molecular target: T3, PUM1 PUF domain R3-THE R4-TFR R7-NPG C935T + R936H + Q939E + N971T + H972F + Q975R + S1079N + N1080P + E1083G (Homo sapiens) (UniProt Q14671)
T3 sequence: T1 sequence with V72N, F73Y, S252N, N253P, E256G

Q: For “GGCUAGAACUAGUGGAUCCCCCGGCGCCCGGCGGCUCGAGCCCGGGUAAGGUGAUGACGUCUGCAUGCCGCCGGGCGCCAUGCCUGCAGGUCGACUCUAGAAAACAUG”, which binding signal (log2 enrichment (interaction score)) [1] is on record?
A: -5.32

Q: Which binding signal (log2 enrichment (interaction score)) [1] does the source give for “GGCUAGAACUAGUGGAUCCCCCGGCGCCCGGCGGCUCGAGCCCGGGUAAGAAGACAAAGUCUGCAUGCCGCCGGGCGCCAUGCCUGCAGGUCGACUCUAGAAAACAUG” here?
A: < -5.79

Q: “GGCUAGAACUAGUGGAUCCCCCGGCGCCCGGCGGCUCGAGCCCGGGUAAGUUGUUUAAGUCUGCAUGCCGCCGGGCGCCAUGCCUGCAGGUCGACUCUAGAAAACAUG” was tested. Which binding signal (log2 enrichment (interaction score)) [1] did it give?
A: -6.1

Q: How did the binding signal (log2 enrichment (interaction score)) [1] turn out when “GGCUAGAACUAGUGGAUCCCCCGGCGCCCGGCGGCUCGAGCCCGGGUAAGUCAAAGACGUCUGCAUGCCGCCGGGCGCCAUGCCUGCAGGUCGACUCUAGAAAACAUG” was run?
A: -5.46

Q: For “GGCUAGAACUAGUGGAUCCCCCGGCGCCCGGCGGCUCGAGCCCGGGUAAGAUUAAAUAGUCUGCAUGCCGCCGGGCGCCAUGCCUGCAGGUCGACUCUAGAAAACAUG”, which binding signal (log2 enrichment (interaction score)) [1] is on record?
A: < -5.7

Q: How did the binding signal (log2 enrichment (interaction score)) [1] turn out when “GGCUAGAACUAGUGGAUCCCCCGGCGCCCGGCGGCUCGAGCCCGGGUAAGAGGAACAAGUCUGCAUGCCGCCGGGCGCCAUGCCUGCAGGUCGACUCUAGAAAACAUG” was run?
A: -4.7

Q: Which binding signal (log2 enrichment (interaction score)) [1] does the source give for “GGCUAGAACUAGUGGAUCCCCCGGCGCCCGGCGGCUCGAGCCCGGGUAAGUUAACCACGUCUGCAUGCCGCCGGGCGCCAUGCCUGCAGGUCGACUCUAGAAAACAUG” here?
A: -5.4

Q: With “GGCUAGAACUAGUGGAUCCCCCGGCGCCCGGCGGCUCGAGCCCGGGUAAGUUCAUGUCGUCUGCAUGCCGCCGGGCGCCAUGCCUGCAGGUCGACUCUAGAAAACAUG” as the sequence, how does the binding signal (log2 enrichment (interaction score)) [1] read?
A: -5.34

Q: Which results are given for “GGCUAGAACUAGUGGAUCCCCCGGCGCCCGGCGGCUCGAGCCCGGGUAAGUCUUCAAAGUCUGCAUGCCGCCGGGCGCCAUGCCUGCAGGUCGACUCUAGAAAACAUG”?
A: binding signal (log2 enrichment (interaction score)) [1]: -5.56; binding signal (log2 enrichment (interaction score)) [2]: -6.81

Q: “GGCUAGAACUAGUGGAUCCCCCGGCGCCCGGCGGCUCGAGCCCGGGUAAGGUUGAGACGUCUGCAUGCCGCCGGGCGCCAUGCCUGCAGGUCGACUCUAGAAAACAUG” was tested. Which binding signal (log2 enrichment (interaction score)) [1] did it give?
A: -5.54

Q: How did the binding signal (log2 enrichment (interaction score)) [1] turn out when “GGCUAGAACUAGUGGAUCCCCCGGCGCCCGGCGGCUCGAGCCCGGGUAAGAUCAAGUAGUCUGCAUGCCGCCGGGCGCCAUGCCUGCAGGUCGACUCUAGAAAACAUG” was run?
A: -6.74

Q: Which binding signal (log2 enrichment (interaction score)) [1] does the source give for “GGCUAGAACUAGUGGAUCCCCCGGCGCCCGGCGGCUCGAGCCCGGGUAAGGUCGAGUAGUCUGCAUGCCGCCGGGCGCCAUGCCUGCAGGUCGACUCUAGAAAACAUG” here?
A: -5.99

Q: And the binding signal (log2 enrichment (interaction score)) [2]?
A: -7.29

Q: “GGCUAGAACUAGUGGAUCCCCCGGCGCCCGGCGGCUCGAGCCCGGGUAAGGUAUCGAAGUCUGCAUGCCGCCGGGCGCCAUGCCUGCAGGUCGACUCUAGAAAACAUG” was tested. Which binding signal (log2 enrichment (interaction score)) [1] did it give?
A: -5.78

Q: For “GGCUAGAACUAGUGGAUCCCCCGGCGCCCGGCGGCUCGAGCCCGGGUAAGAUUAUUUAGUCUGCAUGCCGCCGGGCGCCAUGCCUGCAGGUCGACUCUAGAAAACAUG”, which binding signal (log2 enrichment (interaction score)) [1] is on record?
A: -5.29

Q: For “GGCUAGAACUAGUGGAUCCCCCGGCGCCCGGCGGCUCGAGCCCGGGUAAGAUCAAGAUGUCUGCAUGCCGCCGGGCGCCAUGCCUGCAGGUCGACUCUAGAAAACAUG”, which binding signal (log2 enrichment (interaction score)) [1] is on record?
A: -5.01

Q: “GGCUAGAACUAGUGGAUCCCCCGGCGCCCGGCGGCUCGAGCCCGGGUAAGUCCAAAGAGUCUGCAUGCCGCCGGGCGCCAUGCCUGCAGGUCGACUCUAGAAAACAUG” was tested. Which binding signal (log2 enrichment (interaction score)) [1] did it give?
A: -5.52

Q: “GGCUAGAACUAGUGGAUCCCCCGGCGCCCGGCGGCUCGAGCCCGGGUAAGUGGCCUGAGUCUGCAUGCCGCCGGGCGCCAUGCCUGCAGGUCGACUCUAGAAAACAUG” was tested. Which binding signal (log2 enrichment (interaction score)) [1] did it give?
A: -2.66

Q: With “GGCUAGAACUAGUGGAUCCCCCGGCGCCCGGCGGCUCGAGCCCGGGUAAGGUGAAAGAGUCUGCAUGCCGCCGGGCGCCAUGCCUGCAGGUCGACUCUAGAAAACAUG” as the sequence, how does the binding signal (log2 enrichment (interaction score)) [1] read?
A: -5.8

Q: “GGCUAGAACUAGUGGAUCCCCCGGCGCCCGGCGGCUCGAGCCCGGGUAAGGUGAGGUUGUCUGCAUGCCGCCGGGCGCCAUGCCUGCAGGUCGACUCUAGAAAACAUG” was tested. Which binding signal (log2 enrichment (interaction score)) [1] did it give?
A: -5.87

Q: How did the binding signal (log2 enrichment (interaction score)) [1] turn out when “GGCUAGAACUAGUGGAUCCCCCGGCGCCCGGCGGCUCGAGCCCGGGUAAGUUUACCUAGUCUGCAUGCCGCCGGGCGCCAUGCCUGCAGGUCGACUCUAGAAAACAUG” was run?
A: -5.62

Q: And the binding signal (log2 enrichment (interaction score)) [2]?
A: -6.2

Q: “GGCUAGAACUAGUGGAUCCCCCGGCGCCCGGCGGCUCGAGCCCGGGUAAGUGACAGAAGUCUGCAUGCCGCCGGGCGCCAUGCCUGCAGGUCGACUCUAGAAAACAUG” was tested. Which binding signal (log2 enrichment (interaction score)) [1] did it give?
A: -5.3

Q: “GGCUAGAACUAGUGGAUCCCCCGGCGCCCGGCGGCUCGAGCCCGGGUAAGUUUUGGUCGUCUGCAUGCCGCCGGGCGCCAUGCCUGCAGGUCGACUCUAGAAAACAUG” was tested. Which binding signal (log2 enrichment (interaction score)) [1] did it give?
A: -6.09

Q: What about the binding signal (log2 enrichment (interaction score)) [2] of the same sequence?
A: < -6.83

Q: For “GGCUAGAACUAGUGGAUCCCCCGGCGCCCGGCGGCUCGAGCCCGGGUAAGGUUGACACGUCUGCAUGCCGCCGGGCGCCAUGCCUGCAGGUCGACUCUAGAAAACAUG”, which binding signal (log2 enrichment (interaction score)) [1] is on record?
A: -5.11

Q: “GGCUAGAACUAGUGGAUCCCCCGGCGCCCGGCGGCUCGAGCCCGGGUAAGAGUGUCACGUCUGCAUGCCGCCGGGCGCCAUGCCUGCAGGUCGACUCUAGAAAACAUG” was tested. Which binding signal (log2 enrichment (interaction score)) [1] did it give?
A: -5.08

Q: With “GGCUAGAACUAGUGGAUCCCCCGGCGCCCGGCGGCUCGAGCCCGGGUAAGUCGAAGGAGUCUGCAUGCCGCCGGGCGCCAUGCCUGCAGGUCGACUCUAGAAAACAUG” as the sequence, how does the binding signal (log2 enrichment (interaction score)) [1] read?
A: -5.13

Q: Which results are given for “GGCUAGAACUAGUGGAUCCCCCGGCGCCCGGCGGCUCGAGCCCGGGUAAGUCUUAGUGGUCUGCAUGCCGCCGGGCGCCAUGCCUGCAGGUCGACUCUAGAAAACAUG”?
A: binding signal (log2 enrichment (interaction score)) [1]: -6.16; binding signal (log2 enrichment (interaction score)) [2]: -6.45

Q: With “GGCUAGAACUAGUGGAUCCCCCGGCGCCCGGCGGCUCGAGCCCGGGUAAGUUCAUAGCGUCUGCAUGCCGCCGGGCGCCAUGCCUGCAGGUCGACUCUAGAAAACAUG” as the sequence, how does the binding signal (log2 enrichment (interaction score)) [1] read?
A: -5.65

Q: How did the binding signal (log2 enrichment (interaction score)) [1] turn out when “GGCUAGAACUAGUGGAUCCCCCGGCGCCCGGCGGCUCGAGCCCGGGUAAGUAUAAGAGGUCUGCAUGCCGCCGGGCGCCAUGCCUGCAGGUCGACUCUAGAAAACAUG” was run?
A: -5.06

Q: With “GGCUAGAACUAGUGGAUCCCCCGGCGCCCGGCGGCUCGAGCCCGGGUAAGUUAAAUACGUCUGCAUGCCGCCGGGCGCCAUGCCUGCAGGUCGACUCUAGAAAACAUG” as the sequence, how does the binding signal (log2 enrichment (interaction score)) [1] read?
A: -5.71

Q: “GGCUAGAACUAGUGGAUCCCCCGGCGCCCGGCGGCUCGAGCCCGGGUAAGUGAAACACGUCUGCAUGCCGCCGGGCGCCAUGCCUGCAGGUCGACUCUAGAAAACAUG” was tested. Which binding signal (log2 enrichment (interaction score)) [1] did it give?
A: < -6.46

Q: With “GGCUAGAACUAGUGGAUCCCCCGGCGCCCGGCGGCUCGAGCCCGGGUAAGUGUCCGUCGUCUGCAUGCCGCCGGGCGCCAUGCCUGCAGGUCGACUCUAGAAAACAUG” as the sequence, how does the binding signal (log2 enrichment (interaction score)) [1] read?
A: -5.25

Q: And the binding signal (log2 enrichment (interaction score)) [2]?
A: -7.3

Q: With “GGCUAGAACUAGUGGAUCCCCCGGCGCCCGGCGGCUCGAGCCCGGGUAAGUAGAUUUAGUCUGCAUGCCGCCGGGCGCCAUGCCUGCAGGUCGACUCUAGAAAACAUG” as the sequence, how does the binding signal (log2 enrichment (interaction score)) [1] read?
A: -4.92

Q: What about the binding signal (log2 enrichment (interaction score)) [2] of the same sequence?
A: -7.59

Q: How did the binding signal (log2 enrichment (interaction score)) [1] turn out when “GGCUAGAACUAGUGGAUCCCCCGGCGCCCGGCGGCUCGAGCCCGGGUAAGUGUAUGUGGUCUGCAUGCCGCCGGGCGCCAUGCCUGCAGGUCGACUCUAGAAAACAUG” was run?
A: -5.81

Q: What about the binding signal (log2 enrichment (interaction score)) [2] of the same sequence?
A: -6.01

Q: “GGCUAGAACUAGUGGAUCCCCCGGCGCCCGGCGGCUCGAGCCCGGGUAAGUUUUCGUUGUCUGCAUGCCGCCGGGCGCCAUGCCUGCAGGUCGACUCUAGAAAACAUG” was tested. Which binding signal (log2 enrichment (interaction score)) [1] did it give?
A: -5.65

Q: And the binding signal (log2 enrichment (interaction score)) [2]?
A: < -6.79

Q: What about the binding signal (log2 enrichment (interaction score)) [3] of the same sequence?
A: < -1.48

Q: Which binding signal (log2 enrichment (interaction score)) [1] does the source give for “GGCUAGAACUAGUGGAUCCCCCGGCGCCCGGCGGCUCGAGCCCGGGUAAGCGGACCACGUCUGCAUGCCGCCGGGCGCCAUGCCUGCAGGUCGACUCUAGAAAACAUG” here?
A: < -5.96

Q: What about the binding signal (log2 enrichment (interaction score)) [2] of the same sequence?
A: < -6.31
